According to PubChem BioAssay AID1688 (National Center for Advancing Translational Sciences (NCATS), 2009):
The campaign covered roughly 220,000 compounds. About 2,400 (1.1%) were called active. Inconclusive results, whose numbers are uncertain, are shown with a selection of clear calls. Calls come from the whole dose curve; as a rule, active = well fitted inhibition curve with a large enough effect; inconclusive = small, poorly fitted or top-dose-only effect, or effect the other way; inactive = no such curve, though single readings can be large or run the other way. Potencies beside an inconclusive call are fits to weak or partial responses and may not hold up.

Assay: qHTS Multiplex Assay to Identify Dual Action Probes in a Cell Model of Huntington: Aggregate Formation (GFP); note: nearly all actives have a fitted effect of over 60% in size
Details: PC12 HttQ103-GFP aggregates, Acumen cytometry, 40 h; activity change, negative = inhibition: at 46.1 µM (top of the series) unless noted
How it was run: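 Compounds (qHTS titration) were added to PC12 cells expressing an ecdysone-driven HTT exon 1 Q103–GFP fusion after induction with 100 nM tebufenozide. Aggregate formation was measured as GFP objects in cell lysates.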
% is set by controls: 0 for no effect and ±100 for the full control effect; potency is the fitted concentration of half-maximal effect.

| SMILES | Potency | activity change, negative = inhibition |
| --- | --- | --- |
| N#CC1=C(S)N(c2ccccc2)C(c2ccc(-c3cc(Cl)ccc3Cl)o2)NC1=O (configuration not stated) | inconclusive: 31.6 µM [activator, single point] |  |
| O=S(=O)(Nc1ccc(S(=O)(=O)N2CCCCC2)cc1)c1ccc(Br)s1 | inconclusive: 0.891 µM [inhibitor, partial curve] |  |
| O=C(O)c1ccc(/C=N/NC(=S)NC2CCCCC2)cc1 | inactive |  |
| CCCOc1ccc(C(=O)Nc2cc(-c3nn4c(C)nnc4s3)ccc2C)cc1 | inconclusive: 0.562 µM [activator, partial curve, poor fit] |  |
| CN(C)/C=C/C(=O)c1ccc(F)cc1F |  | inactive: -8.36% [at 9.22 µM] |
| O=C(Nc1cc(Cl)ccc1O)c1snnc1-c1ccccc1 | active: 15.8 µM |  |
| COc1ccc(C(=O)c2cc([N+](=O)[O-])ccc2N2CCCC2)cc1 | inactive |  |
| CCN1C(=O)C(O)(C2COC(C)(C)CC2=O)c2ccccc21 (configuration not stated) | inactive |  |
| Cc1nnc(NN2CCOCC2)[nH]c1=O | inactive |  |
| Cc1nc(NC(=O)c2ccc(Cl)cc2)sc1Cc1ccc2c(c1)OCO2 | inconclusive: 10 µM [inhibitor, partial curve] |  |
| COc1cccc(CNCCc2c[nH]c3ccccc23)c1OCc1ccccc1F | inconclusive: 22.4 µM [inhibitor, single point] |  |
| CC(NC(=S)Nc1ccc(OC(F)F)c(Cl)c1)C(C)(C)C (configuration not stated) | inconclusive: 28.2 µM [inhibitor, single point] |  |
| CCOC(=O)C1=NNC2C(=O)N(C3CCCCC3)C(=O)C12 (configuration not stated) | inactive |  |
| Cn1nc(C(F)(F)F)c(C#N)c1N1CCN(c2ccccc2F)CC1 | inactive |  |
| O=c1ccn(CCc2c[nH]c3ccccc23)c2c1CCCC2 | inactive |  |
| O=C(NCCN1C(=O)S/C(=C\c2ccc(Cl)c(Cl)c2)C1=O)c1cnccn1 | inconclusive: 0.708 µM [inhibitor, single point] |  |
| CC(=O)c1c(C)n([O-])c2cc(F)c(F)cc2[n+]1=O | inconclusive: 25.1 µM [inhibitor, single point] |  |
| COc1ccccc1CNC(=O)c1cc(=O)c2ccccc2o1 | inconclusive: 35.5 µM [inhibitor, single point] |  |
| Cc1ccc([N+](=O)[O-])cc1NC(=O)CN(C(=O)c1ccc(Cl)cc1)C1CCCCC1 | inconclusive: 35.5 µM [inhibitor, single point] |  |
| COc1ccc(NC(=O)/C(Cl)=C(/Cl)S(=O)Cc2ccc(Cl)cc2)cn1 (configuration not stated) | active: 4.47 µM |  |
| O=C(CSc1nc(C2CC2)nc2ccccc12)Nc1ccc2c(c1)OCCO2 | inconclusive: 35.5 µM [activator, single point] |  |
| COC(=O)C1=C(C)Nc2ncnn2C1c1ccc(OCc2ccccc2)cc1 (configuration not stated) | inconclusive: 3.98 µM [inhibitor, single point] |  |
| Cc1nc(SCC(=O)Nc2ccc(F)cc2)c(C#N)c(C)c1CC(=O)c1ccc(Br)cc1 | inactive |  |
| O=C(Nc1ccccc1C(=O)N1CCOCC1)c1noc2c1CCCC2 | inactive |  |

| SMILES | Potency | activity change, negative = inhibition |
| --- | --- | --- |
| CC(=O)c1ccc(S(=O)(=O)N2CCCCC2C(=O)O)cc1 (configuration not stated) | inconclusive: 1.26 µM [inhibitor, single point] |  |
| N#Cc1ccc(-c2csc(NNC(=O)c3ccc(Br)cc3)n2)cc1 | inconclusive: 22.4 µM [inhibitor, single point] |  |
| CC(Cc1cccs1)NC(=O)Nc1ccc(Cl)cc1 (configuration not stated) | inconclusive: 10 µM [inhibitor, partial curve, poor fit] |  |
| O=C(c1csc2c1CCCC2)N1CCN(c2cccc(C(F)(F)F)c2)CC1 | inconclusive: 35.5 µM [inhibitor, single point] |  |
| COc1cccc(NC(=O)N2CCN(c3nnnn3-c3ccccc3)CC2)c1 | inactive |  |
| O=C(CN1C(=O)C2C3C=CC(C4CC34)C2C1=O)NCc1ccco1 (configuration not stated) | inconclusive: 0.562 µM [activator, full curve] |  |
| CCOC(=S)SCC(=O)Nc1nccs1 | active: 5.62 µM |  |
| O=C(CCc1ccc(Oc2cc([N+](=O)[O-])cc([N+](=O)[O-])c2)cc1)N1CCCCCC1 | inactive |  |
| COc1ccc(C(=S)NC2CCCCC2)cc1 | inconclusive: 35.5 µM [activator, single point] |  |
| O=C(NCc1cccs1)c1ccccc1[N+](=O)[O-] | inconclusive: 5.62 µM [inhibitor, single point] |  |
| CC(=O)Oc1ccc(C(=O)Nc2cccc(C(=O)c3ccc(C)c(C)c3)c2)cc1 | inactive |  |
| NS(=O)(=O)c1ccc(CNC(=S)Nc2ccc(Cl)c(Cl)c2)cc1 | inconclusive: 14.1 µM [inhibitor, single point] |  |
| O=C(Nc1ccc(F)cc1)c1ccc2nc[nH]c2c1 | inconclusive: 0.0316 µM [inhibitor, full curve, poor fit] |  |
| Cc1nn(-c2ccccc2)c(Cl)c1/C=N/NC(=O)C1COc2ccccc2O1 (configuration not stated) | inactive |  |
| COCCNc1nc(CSc2ccccc2)nc2sc(C)c(C)c12 | inconclusive: 15.8 µM [inhibitor, single point] |  |
| COc1ccc(NC(=O)c2cc(-c3cc(C)cc(C)c3O)n[nH]2)cc1Cl | inconclusive: 35.5 µM [inhibitor, single point] |  |
| COc1ccc(OC)c(NC(=O)N2CCCC(C(=O)c3ccccc3OC)C2)c1 (configuration not stated) |  | inactive: 0.571% [at 9.22 µM] |
| COc1ccc(NC(=O)/C(Cl)=C(/Cl)S(=O)Cc2ccccc2)cn1 (configuration not stated) | active: 5.01 µM |  |
| CC1Cc2ccccc2N1C(=O)c1ccnc(C(C)(C)C)c1 (configuration not stated) | inconclusive: 35.5 µM [inhibitor, single point] |  |
| Cc1ccc(-n2cc(-c3ccccc3)c3c(N4CCOCC4)ncnc32)cc1 | inconclusive: 14.1 µM [inhibitor, single point] |  |
| O=C(COc1ccc2ccccc2c1)NC1CC1 | inconclusive: 35.5 µM [inhibitor, single point] |  |
| Oc1nc(Nc2cccc(Cl)c2)sc1/C=C1\C=Nc2ccccc21 | active: 8.91 µM |  |
| COCCn1c(=NC(=O)c2ccco2)sc2cc(C(=O)OC)ccc21 | inactive |  |
| CCn1c2ccccc2c2cc(/C=N/O)ccc21 | inconclusive: 11.2 µM [inhibitor, single point] |  |

Six compounds from above, arranged by number of heavy atoms, low to high.

| SMILES | Potency | activity change, negative = inhibition |
| --- | --- | --- |
| COc1ccc(C(=S)NC2CCCCC2)cc1 | inconclusive: 35.5 µM [activator, single point] |  |
| CC(Cc1cccs1)NC(=O)Nc1ccc(Cl)cc1 (configuration not stated) | inconclusive: 10 µM [inhibitor, partial curve, poor fit] |  |
| O=C(O)c1ccc(/C=N/NC(=S)NC2CCCCC2)cc1 | inactive |  |
| O=C(c1csc2c1CCCC2)N1CCN(c2cccc(C(F)(F)F)c2)CC1 | inconclusive: 35.5 µM [inhibitor, single point] |  |
| Cc1nn(-c2ccccc2)c(Cl)c1/C=N/NC(=O)C1COc2ccccc2O1 (configuration not stated) | inactive |  |
| COc1ccc(OC)c(NC(=O)N2CCCC(C(=O)c3ccccc3OC)C2)c1 (configuration not stated) |  | inactive: 0.571% [at 9.22 µM] |

Next compounds.

| SMILES | Potency | activity change, negative = inhibition |
| --- | --- | --- |
| COc1ccc(CN(C(=O)Cn2nnc3ccccc32)C(C(=O)NC(C)(C)C)c2ccco2)cc1 (configuration not stated) | inconclusive: 20 µM [activator, partial curve] |  |
| CC(NC(=O)COC(=O)c1cc(NS(=O)(=O)c2ccc(Cl)c([N+](=O)[O-])c2)ccc1O)C1CC2CCC1C2 (configuration not stated) | inconclusive: 35.5 µM [inhibitor, single point] |  |
| CCC(C)C(=O)Nc1nc(C)c(-c2csc(Nc3cc(OC)ccc3OC)n2)s1 (configuration not stated) | inconclusive: 11.2 µM [inhibitor, single point] |  |
| Cc1ccc(S(=O)(=O)N[C@@H](Cc2ccccc2)C(=O)CCl)cc1 | inconclusive: 35.5 µM [inhibitor, single point] |  |
| O=C1c2ccccc2NC(c2ccc(-c3cccc(Cl)c3)o2)N1O (configuration not stated) | inconclusive: 7.08 µM [inhibitor, partial curve] |  |
| O=C(NC(Cc1c[nH]c2ccccc12)c1nnc2n1CCCCC2)c1ccccc1Cl (configuration not stated) | inconclusive: 15.8 µM [activator, partial curve] |  |
| O=C(/C=C/NNC(=O)c1ccc(Cl)cc1)c1ccccc1 | inconclusive: 3.98 µM [activator, partial curve] |  |
| Cc1cccc(NC(=S)NCCc2c[nH]c3ccccc23)c1 | active: 11.2 µM |  |
| O=C1c2ccccc2COc2ccc(O)cc21 | inactive |  |
| O=C(Nc1ccccc1N1CCOCC1)c1ccccc1NS(=O)(=O)c1ccc(F)cc1 | inconclusive: 39.8 µM [inhibitor, partial curve, poor fit] |  |
| Cc1ccc(N2CN=c3s/c(=C\c4cccnc4)c(=O)n3C2)cc1 | active: 10 µM |  |
| CC(/C=C/c1ccc(C)o1)=C\C(=O)O | inconclusive: 35.5 µM [activator, single point] |  |
| N#CC1=C(N)OC2=C(CN(Cc3ccccc3)C/C2=C\c2cccnc2)C1c1cccnc1 (configuration not stated) | inconclusive: 11.2 µM [activator, partial curve] |  |
| CCN(CC)c1ncnc2scc(C3COc4ccccc4O3)c12 (configuration not stated) | inconclusive: 35.5 µM [inhibitor, single point] |  |
| Cc1[nH]n(-c2ccc(Cl)cc2)c(=O)c1C=NC12CN3CN(CN(C3)C1)C2 | inconclusive: 3.98 µM [activator, full curve, poor fit] |  |
| O=c1c(Cl)c(O)c2cccc3c4ccccc4n1c23 | inconclusive: 10 µM [activator, partial curve, poor fit] |  |
| COc1ccc(N2C(=O)CC(N(CCc3ccccc3)C(=O)c3ccccc3)C2=O)cc1 (configuration not stated) |  | inactive: -6.3% [at 9.22 µM] |
| O=C(Nc1ccc(Cl)c(Cl)c1)OCc1cncs1 | active: 11.2 µM |  |
| O=S(=O)(NC1CCCC1)c1ccc(S(=O)(=O)N2CCc3ccccc32)cc1 | active: 11.2 µM |  |
| CCOC(=O)c1cc(-c2ccc(OC(F)F)cc2)nc2nc(SC)[nH]c(=O)c12 | inactive |  |
| CCOC(=O)C1=NN(c2cccc(C)c2)C2(S1)SC(C(C)=O)=C(C)N2c1ccccc1 (configuration not stated) | inconclusive: 10 µM [activator, partial curve] |  |
| CCOC(=O)c1c(N)sc2c1C1CCN2CC1 | inactive |  |
| COc1ccc(-c2cc(=O)n(-c3ccc([N+](=O)[O-])cc3)[nH]2)cc1 | inconclusive: 35.5 µM [inhibitor, single point] |  |
| C=CCn1c(SCC(=O)Nc2ccc3c(c2)OCO3)nnc1-c1ccccc1O | inconclusive: 0.562 µM [inhibitor, full curve, poor fit] |  |
